Values quoted from earlier work in patent US20260315494A1, “TREATMENT OF BREAST TISSUE” (Havah Therapeutics Pty Ltd, priority 2023, published 2026).
The name of at least one read-out is uncertain.

Conditions: Recchione 1995; cited from earlier work

Compound: C[C@]12CCC(=O)C[C@@H]1CC[C@@H]1[C@@H]2CC[C@]2(C)[C@@H](O)CC[C@@H]12 [DHT, 5α-dihydrotestosterone]
- DHT level in tumour tissue relative to serum: at least 3 time higher
